For one molecule, binding results are on record in US20230250454A1.

No constants are given. Whether binding was seen depends on the method and setting. Some results given as binding are weak or reduced against the parent protein; the word gives no strength. Sequences can lack the tags named with a protein.

This experiment concerns the target MLT transposase of the present disclosure (Myotis lucifugus transposase, purified, MBP tag removed by TEV protease) (Myotis lucifugus (engineered: L573del, E574del, S2A)). Put plainly: Superdex 200 size exclusion chromatography of purified protein (self-association, homodimer). For orientation: In gel filtration, larger molecules generally elute earlier.

B1: MLT transposase of the present disclosure (Myotis lucifugus transposase, purified, MBP tag removed by TEV protease) (enzyme)
chain: MAQHSDYSDDEFCADKLSNYSCDSDLENASTSDEDSSDDEVMVRPRTLRRRRISSSSSDSESDIEGGREEWSHVDNPPVLEDFLGHQGLNTDAVINNIEDAVKLFIGDDFFEFLVEESNRYYNQNRNNFKLSKKSLKWKDITPQEMKKFLGLIVLMGQVRKDRRDDYWTTEPWTETPYFGKTMTRDRFRQIWKAWHFNNNADIVNESDRLCKVRPVLDYFVPKFINIYKPHQQLSLDEGIVPWRGRLFFRVYNAGKIVKYGILVRLLCESDTGYICNMEIYCGEGKRLLETIQTVVSPYTDSWYHIYMDNYYNSVANCEALMKNKFRICGTIRKNRGIPKDFQTISLKKGETKFIRKNDILLQVWQSKKPVYLISSIHSAEMEESQNIDRTSKKKIVKPNALIDYNKHMKGVDRADQYLSYYSILRRTVKWTKRLAMYMINCALFNSYAVYKSVRQRKMGFKMFLKQTAIHWLTDDIPEDMDIVPDLQPVPSTSGMRAKPPTSDPPCRLSMDMRKHTLQAIVGSGKKKNILRRCRVCSVHKLRSETRYMCKFCNIPLHKGACFEKYHTLKNY
For the molecule B1, the binding entry is “binds”.
